The target in one experiment is Flag-NRXN3 (neurexin-3) (UniProt Q9Y4C0). Kind of experiment: co-IP; HEK-293T cell lysates, IP and IB of endogenous proteins; Flag-NRXN3-expressing HEK-293T lysates with anti-Flag antibody.
The target in experiment [1] is Myc-tagged full-length RSK1 (UniProt Q15418). Kind of experiment: co-IP; lysates of singly transfected HEK-293T cells mixed in vitro; Myc-RSK1 and His-caspase-3 lysates in equal amount with incremental Flag-NRXN3 lysate (or increasing His-caspase-3 lysate, Fig. S4G); anti-Myc immunoprecipitation and IB.
Experiment [2] shares this target. Briefly: co-IP; HEK-293T cells co-transfected with the tagged plasmids for 48 h; NP-40 lysis buffer; IP by anti-Myc, anti-His, anti-HA or as indicated, immunoblot; in some panels with co-expressed RSK1 and NRXN3.

The chains behind the UniProt entries cited, without tags or fusion partners. Residues count along the entry.
UniProt Q9Y4C0, residues 28-1643: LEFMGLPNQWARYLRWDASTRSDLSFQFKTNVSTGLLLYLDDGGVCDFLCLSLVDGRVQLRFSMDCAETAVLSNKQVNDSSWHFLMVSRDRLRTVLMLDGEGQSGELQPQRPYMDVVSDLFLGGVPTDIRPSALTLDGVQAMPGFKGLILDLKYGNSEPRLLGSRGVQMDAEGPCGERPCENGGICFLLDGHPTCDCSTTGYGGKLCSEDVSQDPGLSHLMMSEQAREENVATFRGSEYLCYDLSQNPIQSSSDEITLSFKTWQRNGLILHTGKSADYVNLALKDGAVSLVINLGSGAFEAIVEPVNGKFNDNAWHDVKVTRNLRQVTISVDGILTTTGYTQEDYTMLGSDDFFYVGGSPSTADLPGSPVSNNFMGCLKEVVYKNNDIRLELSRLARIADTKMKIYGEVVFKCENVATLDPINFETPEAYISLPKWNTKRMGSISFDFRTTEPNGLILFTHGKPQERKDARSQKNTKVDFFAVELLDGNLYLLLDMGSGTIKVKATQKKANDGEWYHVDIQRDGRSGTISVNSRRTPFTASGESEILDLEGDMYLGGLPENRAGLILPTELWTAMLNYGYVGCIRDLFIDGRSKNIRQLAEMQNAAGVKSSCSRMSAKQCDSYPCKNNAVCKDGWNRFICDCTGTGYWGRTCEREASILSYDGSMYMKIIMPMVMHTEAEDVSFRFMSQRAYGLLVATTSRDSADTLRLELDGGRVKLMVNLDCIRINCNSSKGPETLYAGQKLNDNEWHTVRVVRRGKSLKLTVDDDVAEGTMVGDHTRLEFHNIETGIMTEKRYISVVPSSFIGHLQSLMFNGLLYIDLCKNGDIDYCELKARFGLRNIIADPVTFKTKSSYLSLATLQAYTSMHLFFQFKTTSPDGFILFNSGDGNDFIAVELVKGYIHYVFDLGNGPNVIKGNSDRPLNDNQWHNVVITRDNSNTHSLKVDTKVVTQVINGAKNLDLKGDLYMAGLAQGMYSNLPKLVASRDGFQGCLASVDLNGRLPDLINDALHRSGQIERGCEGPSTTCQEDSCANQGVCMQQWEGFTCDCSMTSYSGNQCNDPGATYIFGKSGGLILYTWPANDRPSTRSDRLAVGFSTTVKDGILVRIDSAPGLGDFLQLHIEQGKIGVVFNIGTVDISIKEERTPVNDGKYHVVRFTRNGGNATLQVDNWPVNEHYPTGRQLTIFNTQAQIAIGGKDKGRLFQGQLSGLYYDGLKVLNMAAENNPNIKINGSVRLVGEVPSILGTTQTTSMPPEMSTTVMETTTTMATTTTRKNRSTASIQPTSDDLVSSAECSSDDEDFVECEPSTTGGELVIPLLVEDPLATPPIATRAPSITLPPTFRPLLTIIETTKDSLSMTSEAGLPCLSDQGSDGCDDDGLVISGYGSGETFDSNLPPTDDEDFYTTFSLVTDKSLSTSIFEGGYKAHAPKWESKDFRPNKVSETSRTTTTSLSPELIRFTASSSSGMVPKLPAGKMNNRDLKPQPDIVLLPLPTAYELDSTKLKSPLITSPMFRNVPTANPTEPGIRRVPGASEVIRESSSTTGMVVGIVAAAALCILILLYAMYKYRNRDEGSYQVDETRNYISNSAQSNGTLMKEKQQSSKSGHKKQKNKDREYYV
UniProt Q15418: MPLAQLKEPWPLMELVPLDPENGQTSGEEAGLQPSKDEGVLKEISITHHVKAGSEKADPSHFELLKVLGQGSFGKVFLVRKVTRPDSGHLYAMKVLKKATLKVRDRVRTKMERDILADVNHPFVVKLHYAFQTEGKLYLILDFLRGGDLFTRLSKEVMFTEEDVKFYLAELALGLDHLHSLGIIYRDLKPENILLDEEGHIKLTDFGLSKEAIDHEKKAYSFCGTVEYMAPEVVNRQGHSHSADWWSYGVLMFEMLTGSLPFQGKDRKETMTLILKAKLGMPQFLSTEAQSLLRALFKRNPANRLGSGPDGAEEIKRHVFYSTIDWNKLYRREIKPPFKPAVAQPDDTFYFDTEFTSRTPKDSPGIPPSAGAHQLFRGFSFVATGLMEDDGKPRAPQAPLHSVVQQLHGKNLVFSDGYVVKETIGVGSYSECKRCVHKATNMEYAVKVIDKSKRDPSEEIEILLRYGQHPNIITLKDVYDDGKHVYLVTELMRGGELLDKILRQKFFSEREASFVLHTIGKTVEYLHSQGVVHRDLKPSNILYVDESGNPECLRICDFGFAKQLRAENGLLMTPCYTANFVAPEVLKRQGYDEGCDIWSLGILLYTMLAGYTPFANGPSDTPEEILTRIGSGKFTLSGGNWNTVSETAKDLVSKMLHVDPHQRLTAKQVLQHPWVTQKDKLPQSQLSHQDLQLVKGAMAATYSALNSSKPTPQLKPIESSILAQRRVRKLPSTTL

Results on two substances are retold here after PMC12869240.

These are yes or no findings as the source states them, for the method shown. Binding seen in cells or lysates may run through a third protein. Some binding calls cover weakened binding; strength is not graded here.

“endogenous RSK1 in HEK-293T (from UniProt Q15418 1-735) (enzyme)”: in the experiment with Flag-NRXN3 (neurexin-3), the binding result was “binds”.
For “Flag-NRXN3 (neurexin-3) (from UniProt Q9Y4C0 28-1643)”, the binding result in experiment [1] and in experiment [2] was “binds” each time.
